Changes are numbered by the printed parent chain. These are yes or no findings as the source states them, for the method shown. Some results given as binding are weak or reduced against the parent protein; the word gives no strength. For some assays here: Sequences can lack the tags named with a protein.
Tests used:
[1] = molecular target: T1, human LSR with a V5/His tag fused to the C-terminal, on the LSR-expressing cell strain (human) (UniProt Q86X29); test: cell panning of the scFv phage library on the LSR-expressing cell strain, reactivity confirmed by FACS, positive phage clones selected
T1 sequence: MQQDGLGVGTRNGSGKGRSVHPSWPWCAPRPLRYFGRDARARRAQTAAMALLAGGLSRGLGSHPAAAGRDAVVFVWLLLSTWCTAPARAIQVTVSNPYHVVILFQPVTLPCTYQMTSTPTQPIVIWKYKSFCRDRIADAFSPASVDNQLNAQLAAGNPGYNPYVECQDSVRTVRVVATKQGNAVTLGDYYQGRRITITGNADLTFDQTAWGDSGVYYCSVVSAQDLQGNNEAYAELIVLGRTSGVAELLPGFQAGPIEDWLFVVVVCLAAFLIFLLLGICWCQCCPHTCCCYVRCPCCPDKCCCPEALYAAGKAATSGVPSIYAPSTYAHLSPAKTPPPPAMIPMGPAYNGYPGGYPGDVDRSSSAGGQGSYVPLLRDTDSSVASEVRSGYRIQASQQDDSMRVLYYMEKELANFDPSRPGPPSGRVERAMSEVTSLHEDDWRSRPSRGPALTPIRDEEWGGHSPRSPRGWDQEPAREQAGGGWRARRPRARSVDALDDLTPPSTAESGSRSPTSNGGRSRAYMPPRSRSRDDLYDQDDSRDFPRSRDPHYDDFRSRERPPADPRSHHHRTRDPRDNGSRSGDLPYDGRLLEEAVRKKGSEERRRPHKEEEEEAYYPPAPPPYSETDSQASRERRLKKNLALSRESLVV

[2] = molecular target: T2, mouse LSR transiently expressed on COS7 cells from pCMV5-mLSR-myc/DDK (mouse) (UniProt Q99KG5); test: FACS on COS7 cells transiently expressing mLSR from pCMV5-mLSR-myc/DDK, against COS7 cells only; mIgG2a as control
T2 sequence (looked up): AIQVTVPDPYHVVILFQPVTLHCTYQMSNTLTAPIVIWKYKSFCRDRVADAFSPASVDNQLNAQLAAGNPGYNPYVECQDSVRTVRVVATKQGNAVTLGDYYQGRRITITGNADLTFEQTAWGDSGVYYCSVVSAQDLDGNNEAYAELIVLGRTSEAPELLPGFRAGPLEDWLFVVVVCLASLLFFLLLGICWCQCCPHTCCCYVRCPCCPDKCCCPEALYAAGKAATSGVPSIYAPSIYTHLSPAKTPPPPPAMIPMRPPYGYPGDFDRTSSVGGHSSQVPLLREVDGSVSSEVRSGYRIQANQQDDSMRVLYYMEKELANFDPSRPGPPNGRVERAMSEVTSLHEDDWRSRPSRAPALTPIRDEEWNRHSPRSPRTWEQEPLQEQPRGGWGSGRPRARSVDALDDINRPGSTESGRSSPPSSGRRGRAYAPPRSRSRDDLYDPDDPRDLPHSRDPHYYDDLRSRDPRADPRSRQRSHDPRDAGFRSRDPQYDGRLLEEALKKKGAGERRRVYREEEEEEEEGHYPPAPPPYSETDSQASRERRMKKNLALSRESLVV

[3] = molecular target: T2, mouse LSR transiently expressed on COS7 cells from pCMV5-mLSR-myc/DDK (mouse); test: FACS on COS7 cells transfected with a mouse LSR expression vector or a control vector
[4] = molecular target: T3, human LSR (lipolysis stimulated lipoprotein receptor) (human) (UniProt Q86X29); test: FACS on ovarian cancer cell strains (OVSAHO, JHOS2, RGM-I, OVISE)
T3 sequence: T1 sequence

[5] = molecular target: T2, mouse LSR transiently expressed on COS7 cells from pCMV5-mLSR-myc/DDK (mouse); test: refers to the FACS cross-reaction experiment on COS7 cells expressing mouse LSR

B1: SEQ ID NO 1 (scFv phage antibody clone, anti-LSR antibody 9-7 sequence) (scFv)
scFv: AVTLDESGGGLQTPGGALSLVCKASGFTFSDYQMNWVRQAPSKGLEWVAGINGRSSWTDYGAAVKGRATISRDNGQSTVRLQLNNLRAEDTATYYCARGSSIDAWGHGTEVIVSTGGGGSGGGGSGGGGSDVALTQPASVSANPGETVKITCSGGGSYYGSYYYGWYQQKSPGSAPVTMIYNNNNRPSNIPSRFSGSLSGSTNTLTITGVQADEAVYYCGSIDSNIAGVFGAGTTLTV
binding [1]: binds

B2: anti-LSR mouse/chicken chimeric monoclonal antibody #9-7 (antibody, V domains shown)
VH: AVTLDESGGGLQTPGGALSLVCKASGFTFSDYQMNWVRQAPSKGLEWVAGINGRSSWTDYGAAVKGRATISRDNGQSTVRLQLNNLRAEDTATYYCARGSSIDAWGHGTEVIVST
VL: ALTQPASVSANPGETVKITCSGGGSYYGSYYYGWYQQKSPGSAPVTMIYNNNNRPSNIPSRFSGSLSGSTNTLTITGVQADEAVYYCGSIDSNIAGVFGAGTTLTV
notes: also called anti-LSR antibody 9-7
binding [2]: binds
binding [3]: binds
binding [4]: binds

B3: SEQ ID NO 2 (scFv phage antibody clone, anti-LSR antibody 16-6 sequence) (scFv)
scFv: AVTLDESGGGLQTPGGALSLVCKASGFTFNDYGMNWVRQAPSKGLEWVAGINGRSTWTDYGAAVKGRATISRDNGQSTVRQLNNLRAEDTATYFCARGSSIDAWGHGTEVIVSTGGGGSGGGGSGGGGSDVALTQPASVSANPGETVKITCSGGGSYYGTYYFYGWYQQKAPGSAPVTLIYDNTNRPSNIPSRFSGSTSGSTSTLTITGVQVDDEAVYFCGSIDSSYSGIFGAGTTLTV
binding [1]: binds

B4: anti-LSR mouse/chicken chimeric monoclonal antibody #26-2 (antibody, V domains shown)
VH: AVTLDESGGGLQTPGGGLSLVCKGSGFTFSNYEMQWVRQAPGKGLEWVAGISGAGSTTRYGSAVQGRATISRDNGQSTVRLQLNNLRAEDTGTYYCARGSNIDGWGHGTEVIVST
VL: ALTQPSSVSANPGETVKITCSGGGRYAESYYYSWFQQKSPGSAPVTVIYWNDKRPSNIPSRFSGSLSGSTNTLTITGVRAEDEAVYYCGAYEDSSAGFGAGTTLTV
notes: also called No. 26-2; anti-LSR antibody 26-2
binding [2]: binds
binding [3]: binds

B5: anti-LSR mouse/chicken chimeric monoclonal antibody #27-6 (antibody, V domains shown)
VH: AVTLDESGGGLQMPGGALSLVCRASGFDFSSYEMQWIRQAPGKGLEWVAGISGAGSGTRYGSAVKGRATISRDNGQSTVRLQLNNLRAEDTGIYFCARSSNIDAWGHGTEVTVST
VL: ALTQPASVSANLGGTVKITCSGGGRYAESYYYGWYQQKSPGSTPVTVIYWNDKRPSNIPSRFSGSLSGSTNTLTITGVQVEDEAVYFCGSYEDSRSAFGAGTTLTV
notes: also called No. 27-6; anti-LSR antibody 27-6
binding [2]: binds
binding [3]: binds

B6: anti-LSR mouse/chicken chimeric monoclonal antibody #1-25 (antibody, V domains shown)
VH: B5 VH with M13T, R23K, I37V, A49T, A54S, G57S, I93T, F95Y, S99G, N101T
VL: ALTQPASVSANPGETVKITCSGGSSYAGSYYYGWYQQKSPGSAPVTVIYYNDQRPSDIPSRFSGSTSGSTATLTITGVQVEDEAVYICGTYEDSGGVFGAGTTLTV
notes: also called No. 1-25; anti-LSR antibody 1-25
binding [2]: binds
binding [5]: binds
binding [3]: binds

B7: anti-LSR mouse/chicken chimeric monoclonal antibody #1-43 (antibody, V domains shown)
VH: B4 VH with G17A, K23E, G24A, T28D, N31S, Y32H, T57S, N101L, G104A
VL: ALTQPASVSANPGETVKITCSGGGSYYGSYYYSWHQQKSPGSAPVTVIYENNQRPSDIPSRFSGSKSGSTATLTITGVQAEDEAVYFCGSYDSSAGLFGAGTTLTV
notes: also called No. 1-43; anti-LSR antibody 1-43
binding [2]: binds
binding [3]: binds

From patent US10174111 (NATIONAL UNIVERSITY CORPORATION KOCHI UNIVERSITY, dated 2019)
